In the supplement of paper PMC6411743:
± gives the standard deviation of the averaged measurements. The list shows a part of the results, in another mix than the full data. Small differences around the control level are noise.

By UniProt entry, the sequences of proteins in these tests, tags left out. Where a name states a change or a piece, a line headed by the entry shows the natural chain unless it says otherwise.
UniProt P09012, whole entry: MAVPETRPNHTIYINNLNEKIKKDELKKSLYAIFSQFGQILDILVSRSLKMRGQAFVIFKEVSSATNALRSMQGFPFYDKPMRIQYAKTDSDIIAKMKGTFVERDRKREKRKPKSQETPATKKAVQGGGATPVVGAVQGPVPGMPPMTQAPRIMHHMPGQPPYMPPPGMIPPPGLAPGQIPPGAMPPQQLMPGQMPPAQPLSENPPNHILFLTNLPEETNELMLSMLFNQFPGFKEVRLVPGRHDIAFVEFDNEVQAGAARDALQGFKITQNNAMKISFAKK
UniProt P09471, whole entry, looked up: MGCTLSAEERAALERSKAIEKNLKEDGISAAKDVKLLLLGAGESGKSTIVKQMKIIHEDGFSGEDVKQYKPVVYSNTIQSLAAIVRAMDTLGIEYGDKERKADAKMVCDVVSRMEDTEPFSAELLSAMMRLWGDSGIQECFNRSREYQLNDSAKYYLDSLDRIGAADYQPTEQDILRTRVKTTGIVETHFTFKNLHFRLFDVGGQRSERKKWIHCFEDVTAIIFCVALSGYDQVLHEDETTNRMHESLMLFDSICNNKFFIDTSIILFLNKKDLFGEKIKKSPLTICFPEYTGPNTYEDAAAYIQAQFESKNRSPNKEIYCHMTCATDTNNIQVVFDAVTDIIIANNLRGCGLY
UniProt O95983: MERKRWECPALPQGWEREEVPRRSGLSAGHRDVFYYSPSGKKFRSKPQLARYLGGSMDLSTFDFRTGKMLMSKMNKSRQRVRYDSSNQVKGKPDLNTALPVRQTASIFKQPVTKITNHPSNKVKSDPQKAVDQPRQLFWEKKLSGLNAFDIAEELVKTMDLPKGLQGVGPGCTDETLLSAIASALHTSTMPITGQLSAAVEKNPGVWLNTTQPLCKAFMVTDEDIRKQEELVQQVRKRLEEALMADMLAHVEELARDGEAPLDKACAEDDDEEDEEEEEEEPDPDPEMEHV
UniProt P09693, whole entry: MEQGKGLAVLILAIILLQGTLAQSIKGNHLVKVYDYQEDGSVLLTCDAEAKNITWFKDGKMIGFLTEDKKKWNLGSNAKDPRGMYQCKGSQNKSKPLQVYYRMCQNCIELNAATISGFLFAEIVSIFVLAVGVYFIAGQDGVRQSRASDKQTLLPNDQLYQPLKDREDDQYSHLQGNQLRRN
UniProt P10606, whole entry: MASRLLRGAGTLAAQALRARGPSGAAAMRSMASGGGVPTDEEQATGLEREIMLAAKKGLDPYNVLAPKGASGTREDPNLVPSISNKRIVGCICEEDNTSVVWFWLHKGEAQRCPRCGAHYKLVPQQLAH
UniProt P13995: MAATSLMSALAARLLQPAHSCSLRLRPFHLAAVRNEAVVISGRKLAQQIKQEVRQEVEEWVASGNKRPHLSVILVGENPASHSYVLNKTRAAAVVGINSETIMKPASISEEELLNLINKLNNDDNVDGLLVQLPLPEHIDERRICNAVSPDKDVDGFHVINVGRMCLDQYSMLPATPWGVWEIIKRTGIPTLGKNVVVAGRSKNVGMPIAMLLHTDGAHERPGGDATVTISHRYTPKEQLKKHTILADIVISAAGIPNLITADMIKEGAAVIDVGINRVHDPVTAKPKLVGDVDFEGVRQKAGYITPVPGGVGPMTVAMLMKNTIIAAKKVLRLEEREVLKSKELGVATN
UniProt P07355, whole entry: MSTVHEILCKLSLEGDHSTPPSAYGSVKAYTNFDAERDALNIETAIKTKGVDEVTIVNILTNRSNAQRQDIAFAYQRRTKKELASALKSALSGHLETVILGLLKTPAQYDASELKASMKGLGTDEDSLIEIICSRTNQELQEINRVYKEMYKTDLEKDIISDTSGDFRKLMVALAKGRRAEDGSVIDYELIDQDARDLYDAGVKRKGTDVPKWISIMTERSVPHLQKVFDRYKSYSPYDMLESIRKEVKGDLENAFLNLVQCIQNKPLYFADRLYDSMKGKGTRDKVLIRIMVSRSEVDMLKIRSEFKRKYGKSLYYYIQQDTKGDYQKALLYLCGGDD
UniProt P16150: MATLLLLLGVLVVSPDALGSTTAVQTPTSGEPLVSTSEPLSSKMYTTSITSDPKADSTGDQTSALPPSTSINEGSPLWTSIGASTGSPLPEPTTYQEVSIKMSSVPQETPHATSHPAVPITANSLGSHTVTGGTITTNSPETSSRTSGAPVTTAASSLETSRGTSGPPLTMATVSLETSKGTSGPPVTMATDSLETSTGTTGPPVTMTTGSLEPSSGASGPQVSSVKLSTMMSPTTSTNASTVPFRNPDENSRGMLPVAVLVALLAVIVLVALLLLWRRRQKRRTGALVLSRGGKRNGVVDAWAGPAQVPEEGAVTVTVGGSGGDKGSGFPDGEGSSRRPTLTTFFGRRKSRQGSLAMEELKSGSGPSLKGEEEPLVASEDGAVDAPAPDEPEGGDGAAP
UniProt P0C7T5: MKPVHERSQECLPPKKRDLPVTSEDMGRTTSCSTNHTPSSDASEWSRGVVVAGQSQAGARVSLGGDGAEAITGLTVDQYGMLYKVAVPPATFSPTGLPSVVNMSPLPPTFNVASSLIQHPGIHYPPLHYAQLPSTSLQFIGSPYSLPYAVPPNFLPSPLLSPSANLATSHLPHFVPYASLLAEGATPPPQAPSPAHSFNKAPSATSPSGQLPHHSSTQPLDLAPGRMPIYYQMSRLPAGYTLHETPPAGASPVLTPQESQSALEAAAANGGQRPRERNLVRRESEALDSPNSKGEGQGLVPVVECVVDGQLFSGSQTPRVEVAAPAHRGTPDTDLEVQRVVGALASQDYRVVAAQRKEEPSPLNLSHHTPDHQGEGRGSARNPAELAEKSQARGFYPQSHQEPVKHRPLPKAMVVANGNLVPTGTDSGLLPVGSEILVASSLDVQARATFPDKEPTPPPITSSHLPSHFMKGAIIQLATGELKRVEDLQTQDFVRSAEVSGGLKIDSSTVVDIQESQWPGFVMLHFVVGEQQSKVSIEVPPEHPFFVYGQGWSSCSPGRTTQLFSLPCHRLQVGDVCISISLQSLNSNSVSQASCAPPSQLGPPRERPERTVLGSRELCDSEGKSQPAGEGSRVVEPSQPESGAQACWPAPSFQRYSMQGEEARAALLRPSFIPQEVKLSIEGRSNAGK
UniProt P13674: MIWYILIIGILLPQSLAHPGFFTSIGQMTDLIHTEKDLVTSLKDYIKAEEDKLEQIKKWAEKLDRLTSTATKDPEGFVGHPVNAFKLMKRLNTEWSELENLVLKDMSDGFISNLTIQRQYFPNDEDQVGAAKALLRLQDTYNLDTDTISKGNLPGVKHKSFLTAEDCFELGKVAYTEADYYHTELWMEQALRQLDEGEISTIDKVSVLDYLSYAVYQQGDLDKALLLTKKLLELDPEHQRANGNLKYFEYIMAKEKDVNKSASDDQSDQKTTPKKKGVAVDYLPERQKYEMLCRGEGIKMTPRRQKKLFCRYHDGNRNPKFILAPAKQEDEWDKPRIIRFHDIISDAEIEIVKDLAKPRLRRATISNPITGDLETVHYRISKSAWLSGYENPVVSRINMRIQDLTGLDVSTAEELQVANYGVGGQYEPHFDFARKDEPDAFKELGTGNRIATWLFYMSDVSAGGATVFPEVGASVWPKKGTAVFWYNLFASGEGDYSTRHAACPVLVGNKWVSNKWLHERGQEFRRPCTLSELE
UniProt P07902: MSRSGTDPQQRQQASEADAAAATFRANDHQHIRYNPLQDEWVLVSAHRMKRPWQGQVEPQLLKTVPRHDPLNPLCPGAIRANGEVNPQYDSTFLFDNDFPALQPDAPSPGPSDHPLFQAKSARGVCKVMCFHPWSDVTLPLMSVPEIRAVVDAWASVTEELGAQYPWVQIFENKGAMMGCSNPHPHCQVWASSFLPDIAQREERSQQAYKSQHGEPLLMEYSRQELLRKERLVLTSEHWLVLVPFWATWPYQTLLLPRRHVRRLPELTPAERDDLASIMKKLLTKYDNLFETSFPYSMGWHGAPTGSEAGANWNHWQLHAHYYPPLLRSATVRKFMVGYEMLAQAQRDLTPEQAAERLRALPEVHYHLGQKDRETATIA
UniProt P05423: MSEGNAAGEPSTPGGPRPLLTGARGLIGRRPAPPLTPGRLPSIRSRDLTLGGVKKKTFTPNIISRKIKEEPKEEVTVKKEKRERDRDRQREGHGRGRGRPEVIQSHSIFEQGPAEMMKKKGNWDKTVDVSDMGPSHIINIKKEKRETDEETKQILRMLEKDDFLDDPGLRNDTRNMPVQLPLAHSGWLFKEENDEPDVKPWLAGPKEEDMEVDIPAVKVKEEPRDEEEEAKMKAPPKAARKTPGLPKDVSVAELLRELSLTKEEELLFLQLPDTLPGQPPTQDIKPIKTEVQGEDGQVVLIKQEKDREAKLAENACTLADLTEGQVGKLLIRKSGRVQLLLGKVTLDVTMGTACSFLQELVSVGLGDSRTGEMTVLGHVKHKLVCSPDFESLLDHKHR
UniProt P10074: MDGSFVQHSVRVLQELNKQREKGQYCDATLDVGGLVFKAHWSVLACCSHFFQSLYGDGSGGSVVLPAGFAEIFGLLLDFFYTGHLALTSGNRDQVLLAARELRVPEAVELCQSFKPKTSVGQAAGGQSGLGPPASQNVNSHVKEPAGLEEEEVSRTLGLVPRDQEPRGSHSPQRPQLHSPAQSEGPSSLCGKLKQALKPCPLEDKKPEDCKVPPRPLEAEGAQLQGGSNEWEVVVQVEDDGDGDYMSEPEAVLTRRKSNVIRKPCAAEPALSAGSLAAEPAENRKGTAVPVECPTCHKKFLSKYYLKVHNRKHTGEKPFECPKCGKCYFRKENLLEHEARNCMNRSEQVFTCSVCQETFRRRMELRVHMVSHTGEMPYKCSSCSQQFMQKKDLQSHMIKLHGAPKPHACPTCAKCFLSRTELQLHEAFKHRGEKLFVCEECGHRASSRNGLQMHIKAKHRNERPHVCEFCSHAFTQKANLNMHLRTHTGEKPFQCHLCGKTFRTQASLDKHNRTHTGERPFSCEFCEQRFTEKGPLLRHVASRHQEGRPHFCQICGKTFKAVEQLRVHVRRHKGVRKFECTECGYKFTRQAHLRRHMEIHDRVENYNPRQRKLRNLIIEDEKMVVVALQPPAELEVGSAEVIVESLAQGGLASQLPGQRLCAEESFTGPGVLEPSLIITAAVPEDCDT
UniProt P06127: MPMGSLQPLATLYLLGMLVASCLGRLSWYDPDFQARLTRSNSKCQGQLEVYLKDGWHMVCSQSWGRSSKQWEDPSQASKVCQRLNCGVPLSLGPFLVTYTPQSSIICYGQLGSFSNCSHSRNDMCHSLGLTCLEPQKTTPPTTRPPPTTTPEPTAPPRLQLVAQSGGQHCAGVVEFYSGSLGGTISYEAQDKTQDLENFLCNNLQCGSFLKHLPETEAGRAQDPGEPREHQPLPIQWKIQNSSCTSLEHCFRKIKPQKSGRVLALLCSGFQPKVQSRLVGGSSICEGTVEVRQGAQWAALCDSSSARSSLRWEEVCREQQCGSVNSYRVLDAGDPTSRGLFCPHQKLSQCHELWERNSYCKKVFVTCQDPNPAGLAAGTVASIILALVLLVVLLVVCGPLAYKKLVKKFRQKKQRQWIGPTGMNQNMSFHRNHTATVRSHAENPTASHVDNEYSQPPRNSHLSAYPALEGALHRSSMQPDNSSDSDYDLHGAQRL
UniProt P05114: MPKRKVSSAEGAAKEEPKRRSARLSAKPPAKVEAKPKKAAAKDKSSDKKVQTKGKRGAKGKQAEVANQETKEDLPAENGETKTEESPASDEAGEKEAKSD
UniProt P06493, whole entry, looked up: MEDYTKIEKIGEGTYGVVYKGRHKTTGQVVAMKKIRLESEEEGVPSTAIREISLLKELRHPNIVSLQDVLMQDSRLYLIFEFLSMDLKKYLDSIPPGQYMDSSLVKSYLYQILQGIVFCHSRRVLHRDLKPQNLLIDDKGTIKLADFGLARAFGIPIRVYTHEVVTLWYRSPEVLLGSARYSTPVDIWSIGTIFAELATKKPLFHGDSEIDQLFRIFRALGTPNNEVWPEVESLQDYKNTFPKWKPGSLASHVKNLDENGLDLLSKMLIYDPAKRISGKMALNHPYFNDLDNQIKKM
UniProt P09669, whole entry: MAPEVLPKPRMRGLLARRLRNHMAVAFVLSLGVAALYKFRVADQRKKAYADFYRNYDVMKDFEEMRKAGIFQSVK
UniProt Q01081: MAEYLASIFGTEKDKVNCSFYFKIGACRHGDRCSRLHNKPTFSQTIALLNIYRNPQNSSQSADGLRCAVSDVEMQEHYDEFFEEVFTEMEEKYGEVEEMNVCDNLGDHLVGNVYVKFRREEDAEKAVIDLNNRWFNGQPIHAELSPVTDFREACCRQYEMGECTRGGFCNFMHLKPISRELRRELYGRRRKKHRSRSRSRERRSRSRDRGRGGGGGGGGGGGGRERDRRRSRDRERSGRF
UniProt P10746: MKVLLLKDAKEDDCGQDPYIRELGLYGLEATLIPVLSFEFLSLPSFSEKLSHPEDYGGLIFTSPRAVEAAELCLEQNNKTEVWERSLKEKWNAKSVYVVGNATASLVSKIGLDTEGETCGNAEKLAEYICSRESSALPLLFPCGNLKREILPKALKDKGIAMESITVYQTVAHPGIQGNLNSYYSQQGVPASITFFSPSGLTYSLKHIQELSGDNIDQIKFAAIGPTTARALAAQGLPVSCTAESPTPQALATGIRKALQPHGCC

Compound: Nc1ncnc2c1ncn2[C@@H]1O[C@H](COP(=O)(O)OP(=O)(O)OP(=O)(O)O)[C@@H](O)[C@H]1O [adenosine triphosphate]
Assay: NP40-soluble protein abundance relative to vehicle (solubility fold change) (ratio); higher = more soluble protein in presence of ATP
Procedure, shortened: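 Data come from three independent experiments in which Dounce-homogenised Jurkat crude lysate was treated at eight concentrations from 0.1 to 10 mM. Treatment ran 10 min at room temperature and then 3 min at 37 °C, after which 0.8% NP40 and benzonase were added for 60 min at 4 °C before ultracentrifugation. The supernatant underwent TMT labelling and LC-MS/MS, and vsn-normalised intensities were expressed as fold change against the detergent-processed vehicle in each replicate.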

| Target | NP40-soluble protein abundance (concentration: 0.1mM) | NP40-soluble protein abundance (concentration: 0.5mM) | NP40-soluble protein abundance (concentration: 1mM) | NP40-soluble protein abundance (concentration: 2mM) | NP40-soluble protein abundance (concentration: 4mM) | NP40-soluble protein abundance (concentration: 6mM) | NP40-soluble protein abundance (concentration: 8mM) | NP40-soluble protein abundance (concentration: 10mM) |
| --- | --- | --- | --- | --- | --- | --- | --- | --- |
| SNRPA (UniProt P09012) | 1.02 ± 0.04 | 0.981 ± 0.064 | 1.01 ± 0.067 | 0.989 ± 0.09 | 0.973 ± 0.093 | 0.984 ± 0.1 | 0.992 ± 0.032 | 0.97 ± 0.006 |
| UniProt P09471-2 | 1.03 ± 0.055 | 1.01 ± 0.032 | 1.04 ± 0.059 | 0.979 ± 0.043 | 0.949 ± 0.052 | 0.975 ± 0.1 | 0.9637 ± 0.0096 | 0.969 ± 0.014 |
| UniProt O95983 and related entries | 0.946 ± 0.1 | 0.942 ± 0.11 | 1.03 ± 0.12 | 0.983 ± 0.078 | 0.98 ± 0.035 | 1.02 ± 0.16 | 1.01 ± 0.065 | 0.92 ± 0.082 |
| GAA (UniProt P10253) | 1 ± 0.026 | 0.999 ± 0.02 | 0.981 ± 0.012 | 1.01 ± 0.021 | 1 ± 0.028 | 0.972 ± 0.015 | 0.962 ± 0.055 | 0.997 ± 0.033 |
| UniProt P09693 | 0.87 ± 0.044 | 0.9 ± 0.087 |  |  |  |  |  |  |
| COX5B (UniProt P10606) | 0.939 ± 0.049 | 0.959 ± 0.024 | 0.9588 ± 0.0074 | 0.963 ± 0.013 | 0.966 ± 0.032 | 1.01 ± 0.028 | 0.936 ± 0.055 | 0.929 ± 0.012 |
| MTHFD2 (UniProt P13995) | 1.03 ± 0.033 | 1.05 ± 0.051 | 1.02 ± 0.018 | 1.01 ± 0.02 | 0.995 ± 0.04 | 1.01 ± 0.043 | 1.01 ± 0.032 | 1 ± 0.026 |
| UniProt P07355 and related entries | 1.01 ± 0.018 | 0.985 ± 0.038 |  |  |  |  |  |  |
| SPN (UniProt P16150) | 0.834 ± 0.17 | 0.767 ± 0.23 | 0.828 ± 0.17 | 0.803 ± 0.16 | 0.812 ± 0.13 | 0.835 ± 0.14 | 0.765 ± 0.094 | 0.71 ± 0.2 |
| ATXN1L (UniProt P0C7T5) | 0.954 ± 0.064 | 0.981 ± 0.042 |  |  |  |  |  |  |
| UniProt O96028 and related entries | 1.02 ± 0.054 | 1.22 ± 0.083 | 1.31 ± 0.054 | 1.45 ± 0.072 | 1.54 ± 0.11 | 1.62 ± 0.12 | 1.62 ± 0.12 | 1.74 ± 0.18 |
| UniProt P13674 and related entries | 0.985 ± 0.012 | 1.01 ± 0.045 | 1.01 ± 0.0016 | 1.01 ± 0.022 | 0.994 ± 0.027 | 1.03 ± 0.054 | 1.01 ± 0.034 | 1.04 ± 0.045 |
| GALT (UniProt P07902) | 1.04 ± 0.042 | 1.06 ± 0.031 | 0.994 ± 0.016 | 0.972 ± 0.068 | 0.983 ± 0.053 | 0.9753 ± 0.0077 | 0.935 ± 0.029 | 0.947 ± 0.02 |
| POLR3D (UniProt P05423) | 0.981 ± 0.033 | 0.9808 ± 0.0084 | 0.986 ± 0.095 | 0.962 ± 0.062 | 0.949 ± 0.071 | 0.963 ± 0.12 | 0.965 ± 0.064 | 0.963 ± 0.065 |
| ZBTB48 (UniProt P10074) | 1.01 ± 0.048 | 1.02 ± 0.042 |  |  |  |  |  |  |
| UniProt P06127 | 0.998 ± 0.018 | 0.982 ± 0.019 |  |  |  |  |  |  |
| HMGN1 (UniProt P05114) | 1.03 ± 0.13 | 1.33 ± 0.39 | 1.23 ± 0.32 | 2 ± 0.51 | 1.5 ± 0.35 | 1.88 ± 0.89 | 1.67 ± 0.38 | 1.95 ± 1.1 |
| UniProt P06493 | 1.06 ± 0.061 | 1.09 ± 0.052 | 1.05 ± 0.054 | 1.06 ± 0.053 | 1.03 ± 0.063 | 1.03 ± 0.1 | 1.05 ± 0.058 | 1.05 ± 0.015 |
| COX6C (UniProt P09669) | 0.835 ± 0.2 | 0.887 ± 0.34 |  |  |  |  |  |  |
| P0DN76 and related entries (UniProt Q01081+P0DN76) | 1.24 ± 0.065 | 2.03 ± 0.081 | 2.11 ± 0.23 | 2.14 ± 0.2 | 2.22 ± 0.17 | 2.36 ± 0.16 | 2.27 ± 0.11 | 2.24 ± 0.17 |
| UROS (UniProt P10746) | 1.02 ± 0.029 | 0.972 ± 0.057 | 0.973 ± 0.029 | 0.988 ± 0.041 | 0.98 ± 0.061 | 0.968 ± 0.038 | 0.95 ± 0.059 | 0.927 ± 0.054 |
| HMGN2 (UniProt P05204) | 1.13 ± 0.22 | 1.18 ± 0.24 | 1.06 ± 0.36 | 1.27 ± 0.42 | 1.29 ± 0.44 | 1.67 ± 0.9 | 1.55 ± 0.41 | 2.08 ± 1.5 |

Pulled one by one from above (two):

| Target | NP40-soluble protein abundance (concentration: 0.1mM) | NP40-soluble protein abundance (concentration: 0.5mM) | NP40-soluble protein abundance (concentration: 1mM) | NP40-soluble protein abundance (concentration: 2mM) | NP40-soluble protein abundance (concentration: 4mM) | NP40-soluble protein abundance (concentration: 6mM) | NP40-soluble protein abundance (concentration: 8mM) | NP40-soluble protein abundance (concentration: 10mM) |
| --- | --- | --- | --- | --- | --- | --- | --- | --- |
| GAA (UniProt P10253) | 1 ± 0.026 | 0.999 ± 0.02 | 0.981 ± 0.012 | 1.01 ± 0.021 | 1 ± 0.028 | 0.972 ± 0.015 | 0.962 ± 0.055 | 0.997 ± 0.033 |
| UniProt P13674 and related entries | 0.985 ± 0.012 | 1.01 ± 0.045 | 1.01 ± 0.0016 | 1.01 ± 0.022 | 0.994 ± 0.027 | 1.03 ± 0.054 | 1.01 ± 0.034 | 1.04 ± 0.045 |
